# Data published in the supplement of paper PMC10849652.
# Protein sequences, listed by entry. Tags and fused reporters are not part of them. Lines headed by an entry give the natural chain unless they say otherwise; changes in a name come on top.
# UniProt O60437: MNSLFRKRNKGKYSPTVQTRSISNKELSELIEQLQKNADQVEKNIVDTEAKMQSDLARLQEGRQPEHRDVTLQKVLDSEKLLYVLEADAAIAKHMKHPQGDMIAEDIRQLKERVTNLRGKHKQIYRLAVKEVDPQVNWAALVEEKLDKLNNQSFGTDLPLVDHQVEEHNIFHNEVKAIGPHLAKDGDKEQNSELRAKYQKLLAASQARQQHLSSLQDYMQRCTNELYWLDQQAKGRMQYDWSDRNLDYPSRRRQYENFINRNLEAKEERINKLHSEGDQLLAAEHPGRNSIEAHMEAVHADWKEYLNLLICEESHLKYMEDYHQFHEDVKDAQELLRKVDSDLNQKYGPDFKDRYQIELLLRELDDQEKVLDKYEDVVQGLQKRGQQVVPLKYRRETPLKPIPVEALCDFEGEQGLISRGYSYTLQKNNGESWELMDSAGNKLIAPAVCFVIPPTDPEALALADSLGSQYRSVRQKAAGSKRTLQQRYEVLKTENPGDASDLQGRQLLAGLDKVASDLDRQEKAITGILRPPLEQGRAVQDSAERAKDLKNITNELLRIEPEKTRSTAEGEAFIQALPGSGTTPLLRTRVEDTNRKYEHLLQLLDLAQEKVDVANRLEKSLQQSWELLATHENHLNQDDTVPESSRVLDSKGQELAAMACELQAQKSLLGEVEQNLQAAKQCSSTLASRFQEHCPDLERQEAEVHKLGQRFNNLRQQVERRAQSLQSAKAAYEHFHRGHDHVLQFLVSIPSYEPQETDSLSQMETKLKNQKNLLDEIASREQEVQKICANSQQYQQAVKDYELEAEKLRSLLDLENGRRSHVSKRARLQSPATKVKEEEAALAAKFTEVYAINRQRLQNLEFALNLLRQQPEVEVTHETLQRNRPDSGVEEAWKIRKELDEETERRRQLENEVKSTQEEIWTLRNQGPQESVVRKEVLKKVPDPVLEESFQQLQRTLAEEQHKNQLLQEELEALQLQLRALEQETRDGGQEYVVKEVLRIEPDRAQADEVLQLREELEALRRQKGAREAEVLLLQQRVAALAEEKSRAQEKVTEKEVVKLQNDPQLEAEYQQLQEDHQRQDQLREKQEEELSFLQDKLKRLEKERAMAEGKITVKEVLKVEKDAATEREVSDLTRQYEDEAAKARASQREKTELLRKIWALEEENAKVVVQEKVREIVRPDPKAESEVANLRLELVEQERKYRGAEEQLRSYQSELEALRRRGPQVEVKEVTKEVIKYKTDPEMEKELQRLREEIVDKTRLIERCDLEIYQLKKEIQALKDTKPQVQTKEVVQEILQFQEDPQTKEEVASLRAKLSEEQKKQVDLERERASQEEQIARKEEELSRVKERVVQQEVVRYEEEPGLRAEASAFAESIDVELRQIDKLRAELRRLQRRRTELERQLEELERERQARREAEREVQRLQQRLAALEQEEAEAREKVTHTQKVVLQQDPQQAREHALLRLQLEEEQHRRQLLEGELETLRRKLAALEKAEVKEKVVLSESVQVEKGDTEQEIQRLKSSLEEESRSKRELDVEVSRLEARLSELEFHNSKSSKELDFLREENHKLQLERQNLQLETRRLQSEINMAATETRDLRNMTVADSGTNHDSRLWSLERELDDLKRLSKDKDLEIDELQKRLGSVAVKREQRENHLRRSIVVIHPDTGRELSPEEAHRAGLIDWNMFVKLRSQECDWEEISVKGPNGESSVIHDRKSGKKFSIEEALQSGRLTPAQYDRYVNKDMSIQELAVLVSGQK
# UniProt Q9Y5P8: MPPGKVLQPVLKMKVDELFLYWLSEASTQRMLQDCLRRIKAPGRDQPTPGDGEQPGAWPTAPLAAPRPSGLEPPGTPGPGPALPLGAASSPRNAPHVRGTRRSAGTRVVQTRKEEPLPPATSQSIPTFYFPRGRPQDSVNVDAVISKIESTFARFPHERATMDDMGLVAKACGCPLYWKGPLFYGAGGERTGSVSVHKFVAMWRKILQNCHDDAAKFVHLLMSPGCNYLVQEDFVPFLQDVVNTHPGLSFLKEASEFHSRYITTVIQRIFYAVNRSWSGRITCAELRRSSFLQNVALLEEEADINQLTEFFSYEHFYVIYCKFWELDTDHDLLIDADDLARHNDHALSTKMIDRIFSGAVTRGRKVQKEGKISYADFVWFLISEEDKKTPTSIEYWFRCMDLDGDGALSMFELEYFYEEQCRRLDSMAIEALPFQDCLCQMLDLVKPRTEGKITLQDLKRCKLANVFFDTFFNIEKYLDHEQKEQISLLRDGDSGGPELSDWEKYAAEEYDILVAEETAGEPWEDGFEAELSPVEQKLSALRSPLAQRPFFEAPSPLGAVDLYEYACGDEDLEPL
# UniProt Q9BZL4: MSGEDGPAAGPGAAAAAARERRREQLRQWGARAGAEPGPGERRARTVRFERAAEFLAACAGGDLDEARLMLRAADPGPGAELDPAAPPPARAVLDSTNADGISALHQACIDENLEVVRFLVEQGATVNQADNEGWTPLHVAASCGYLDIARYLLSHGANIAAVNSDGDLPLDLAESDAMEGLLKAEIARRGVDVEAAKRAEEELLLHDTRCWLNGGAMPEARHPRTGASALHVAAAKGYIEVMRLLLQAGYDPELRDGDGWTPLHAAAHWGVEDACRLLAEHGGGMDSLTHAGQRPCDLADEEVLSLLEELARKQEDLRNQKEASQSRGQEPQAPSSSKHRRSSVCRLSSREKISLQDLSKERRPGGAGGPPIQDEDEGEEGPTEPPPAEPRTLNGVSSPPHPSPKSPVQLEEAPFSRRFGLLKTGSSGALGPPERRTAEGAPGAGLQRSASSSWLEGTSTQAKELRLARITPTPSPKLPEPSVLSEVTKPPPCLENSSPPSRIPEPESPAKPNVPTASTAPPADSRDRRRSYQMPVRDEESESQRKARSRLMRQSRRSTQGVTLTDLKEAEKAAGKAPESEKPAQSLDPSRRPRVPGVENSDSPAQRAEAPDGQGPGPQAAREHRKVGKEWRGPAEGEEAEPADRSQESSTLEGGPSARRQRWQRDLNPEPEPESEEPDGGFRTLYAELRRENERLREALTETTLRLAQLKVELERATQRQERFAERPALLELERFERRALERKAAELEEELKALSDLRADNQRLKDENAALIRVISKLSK
# UniProt Q2NL68: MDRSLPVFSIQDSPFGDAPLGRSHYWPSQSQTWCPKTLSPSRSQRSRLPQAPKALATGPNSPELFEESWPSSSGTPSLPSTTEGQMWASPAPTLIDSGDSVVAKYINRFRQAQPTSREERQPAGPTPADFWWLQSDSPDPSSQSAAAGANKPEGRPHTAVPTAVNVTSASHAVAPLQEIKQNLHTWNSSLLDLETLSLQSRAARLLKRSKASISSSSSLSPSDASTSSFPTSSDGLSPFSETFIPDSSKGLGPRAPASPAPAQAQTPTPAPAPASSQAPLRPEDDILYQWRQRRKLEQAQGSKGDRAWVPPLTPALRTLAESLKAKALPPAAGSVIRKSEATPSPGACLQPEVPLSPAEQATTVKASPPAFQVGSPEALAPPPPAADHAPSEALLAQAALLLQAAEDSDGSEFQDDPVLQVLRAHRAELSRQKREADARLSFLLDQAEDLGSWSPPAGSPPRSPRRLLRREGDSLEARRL
# UniProt O60237: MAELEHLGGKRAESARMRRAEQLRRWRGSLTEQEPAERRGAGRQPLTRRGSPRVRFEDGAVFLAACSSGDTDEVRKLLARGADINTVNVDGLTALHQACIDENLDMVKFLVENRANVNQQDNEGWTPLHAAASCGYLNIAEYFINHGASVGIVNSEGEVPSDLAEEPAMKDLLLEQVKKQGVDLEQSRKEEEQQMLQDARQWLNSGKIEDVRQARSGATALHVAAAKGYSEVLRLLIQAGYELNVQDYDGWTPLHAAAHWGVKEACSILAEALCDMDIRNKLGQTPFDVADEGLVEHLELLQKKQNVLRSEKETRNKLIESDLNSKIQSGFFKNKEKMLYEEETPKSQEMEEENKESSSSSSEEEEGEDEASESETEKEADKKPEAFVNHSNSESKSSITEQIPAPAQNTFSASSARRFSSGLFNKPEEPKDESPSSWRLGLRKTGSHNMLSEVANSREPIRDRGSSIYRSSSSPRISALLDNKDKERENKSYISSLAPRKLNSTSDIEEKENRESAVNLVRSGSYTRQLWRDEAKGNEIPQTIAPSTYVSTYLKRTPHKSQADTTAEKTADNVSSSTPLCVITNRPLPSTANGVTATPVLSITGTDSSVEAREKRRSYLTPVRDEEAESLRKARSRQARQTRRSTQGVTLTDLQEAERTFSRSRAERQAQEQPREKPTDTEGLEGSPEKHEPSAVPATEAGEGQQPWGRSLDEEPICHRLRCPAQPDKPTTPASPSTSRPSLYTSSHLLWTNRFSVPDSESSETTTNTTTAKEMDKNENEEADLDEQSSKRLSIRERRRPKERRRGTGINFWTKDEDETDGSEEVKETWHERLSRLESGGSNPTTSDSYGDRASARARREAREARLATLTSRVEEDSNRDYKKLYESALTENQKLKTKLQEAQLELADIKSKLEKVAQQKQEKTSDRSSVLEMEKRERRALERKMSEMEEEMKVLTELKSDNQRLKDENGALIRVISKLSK
# UniProt Q5SWA1: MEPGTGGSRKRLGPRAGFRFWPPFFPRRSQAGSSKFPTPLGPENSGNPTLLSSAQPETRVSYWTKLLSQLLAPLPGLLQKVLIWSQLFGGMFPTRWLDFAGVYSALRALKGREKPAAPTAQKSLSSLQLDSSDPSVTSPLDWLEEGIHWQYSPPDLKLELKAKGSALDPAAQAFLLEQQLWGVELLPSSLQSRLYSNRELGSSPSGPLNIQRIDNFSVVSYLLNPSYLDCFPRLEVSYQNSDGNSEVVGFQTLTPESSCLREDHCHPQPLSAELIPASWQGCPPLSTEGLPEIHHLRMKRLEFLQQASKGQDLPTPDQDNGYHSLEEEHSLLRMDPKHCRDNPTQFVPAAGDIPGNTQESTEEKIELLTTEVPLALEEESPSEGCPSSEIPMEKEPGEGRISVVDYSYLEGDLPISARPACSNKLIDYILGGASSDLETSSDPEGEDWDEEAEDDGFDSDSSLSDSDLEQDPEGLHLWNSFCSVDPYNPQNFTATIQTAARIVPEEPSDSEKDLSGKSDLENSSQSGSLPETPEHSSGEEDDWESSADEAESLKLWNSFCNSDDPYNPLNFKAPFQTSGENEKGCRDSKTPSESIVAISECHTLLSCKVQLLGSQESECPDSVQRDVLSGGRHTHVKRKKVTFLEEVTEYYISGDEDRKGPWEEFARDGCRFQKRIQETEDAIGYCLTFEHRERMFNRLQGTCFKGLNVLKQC
# UniProt P51817: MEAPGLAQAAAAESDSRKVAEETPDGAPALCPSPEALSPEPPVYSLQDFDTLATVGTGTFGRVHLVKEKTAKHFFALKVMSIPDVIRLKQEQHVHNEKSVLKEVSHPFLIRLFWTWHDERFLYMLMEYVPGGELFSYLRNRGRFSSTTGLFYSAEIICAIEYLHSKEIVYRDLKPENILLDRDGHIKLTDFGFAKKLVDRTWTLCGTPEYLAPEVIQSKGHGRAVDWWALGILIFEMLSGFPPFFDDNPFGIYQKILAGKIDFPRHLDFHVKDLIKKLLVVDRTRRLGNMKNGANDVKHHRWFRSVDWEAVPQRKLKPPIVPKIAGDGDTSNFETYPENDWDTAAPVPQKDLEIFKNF
# UniProt P13727: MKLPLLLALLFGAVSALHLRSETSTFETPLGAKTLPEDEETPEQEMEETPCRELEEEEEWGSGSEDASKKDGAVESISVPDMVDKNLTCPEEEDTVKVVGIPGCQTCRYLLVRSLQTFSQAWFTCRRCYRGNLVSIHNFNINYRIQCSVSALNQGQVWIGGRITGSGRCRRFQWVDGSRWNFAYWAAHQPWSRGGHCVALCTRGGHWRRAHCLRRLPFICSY
# UniProt Q96LW4: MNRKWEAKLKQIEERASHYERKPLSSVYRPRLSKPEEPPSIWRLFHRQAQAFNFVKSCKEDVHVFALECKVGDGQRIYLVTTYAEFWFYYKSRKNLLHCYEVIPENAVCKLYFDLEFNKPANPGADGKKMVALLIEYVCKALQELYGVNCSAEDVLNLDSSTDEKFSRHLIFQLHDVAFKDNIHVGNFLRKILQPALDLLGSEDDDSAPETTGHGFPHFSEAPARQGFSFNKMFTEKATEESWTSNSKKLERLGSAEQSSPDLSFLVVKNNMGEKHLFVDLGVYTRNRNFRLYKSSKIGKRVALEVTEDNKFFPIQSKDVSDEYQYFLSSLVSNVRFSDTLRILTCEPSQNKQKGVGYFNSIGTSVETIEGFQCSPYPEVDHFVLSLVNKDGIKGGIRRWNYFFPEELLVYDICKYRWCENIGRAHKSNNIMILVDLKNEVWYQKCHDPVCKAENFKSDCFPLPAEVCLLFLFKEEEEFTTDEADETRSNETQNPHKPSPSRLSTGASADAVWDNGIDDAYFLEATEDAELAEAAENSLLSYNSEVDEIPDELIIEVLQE
# Some of the results follow.
# Tests used:
# Assay in all cases: log2 fold change, soluble protein after heating vs DMSO (PISA); higher = thermal stabilisation; K562 lysate, 10 uM; active = over 0.2 and 3.5 SD of the protein, either way, in both replicates (recomputed)
# alvocidib = compound: CN1CC[C@H](c2c(O)cc(O)c3c(=O)cc(-c4ccccc4Cl)oc23)[C@H](O)C1 [alvocidib]
# Procedure, shortened: (§1)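 Thermal stability, expressed as log-two fold change relative to solvent controls, is given from duplicates. Crude K562 extract in PBS pH 7.4 with 1 mM MgCl2, at 1 mg/mL protein, was treated with 10 μM compound for 30 min and heated in aliquots for 3 min across 48°C-58°C. After pooling, adjustment to 0.5% NP-40 at 4°C and centrifugation at 21,000xg for 90 min, supernatant protein was measured by TMTpro 16plex LC-MS/MS with channel sums equalised.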
# Tubastatin A = compound: CN1CCc2c(c3ccccc3n2Cc2ccc(C(=O)NO)cc2)C1 [Tubastatin A]
# Procedure, shortened: as §1
# defactinib = compound: CNC(=O)c1ccc(Nc2ncc(C(F)(F)F)c(NCc3nccnc3N(C)S(C)(=O)=O)n2)cc1 [defactinib]
# Procedure, shortened: as §1
# [1] = compound: CNc1nc(-c2ccc3c(N)n[nH]c3c2)cc(N2C[C@@H](C(=O)NC3CCCCC3)CC[C@H]2C)n1
# Procedure, shortened: as §1
# encorafenib = compound: COC(=O)N[C@@H](C)CNc1nccc(-c2cn(C(C)C)nc2-c2cc(Cl)cc(NS(C)(=O)=O)c2F)n1 [encorafenib]
# Procedure, shortened: as §1
# [2] = compound: COC(=O)[C@H](CCSC)NC(=O)C1=C(C=C(C=C1)NC[C@H](CS)N)C2=CC=CC=C2
# Procedure, shortened: as §1
# [3] = compound: COc1cc2nc(-c3cc(F)ccc3O)nc(N[C@@H]3CNC[C@H]3C(C)(C)O)c2cc1OC
# Procedure, shortened: as §1
# lapatinib = compound: CS(=O)(=O)CCNCc1ccc(-c2ccc3ncnc(Nc4ccc(OCc5cccc(F)c5)c(Cl)c4)c3c2)o1 [lapatinib]
# Procedure, shortened: as §1
# pictilisib = compound: CS(=O)(=O)N1CCN(Cc2cc3nc(-c4cccc5[nH]ncc45)nc(N4CCOCC4)c3s2)CC1 [pictilisib]
# Procedure, shortened: as §1
# [4] = compound: C[C@H](C1=CC=C(C=C1)C(=O)NC2=C3C=CNC3=NC=C2)N
# Procedure, shortened: as §1
# duvelisib = compound: C[C@H](Nc1ncnc2nc[nH]c12)c1cc2cccc(Cl)c2c(=O)n1-c1ccccc1 [duvelisib]
# Procedure, shortened: as §1
# gandotinib = compound: Cc1cc(Nc2cc(CN3CCOCC3)c3nc(C)c(Cc4ccc(Cl)cc4F)n3n2)n[nH]1 [gandotinib]
# Procedure, shortened: as §1
# tozasertib = compound: Cc1cc(Nc2cc(N3CCN(C)CC3)nc(Sc3ccc(NC(=O)C4CC4)cc3)n2)n[nH]1 [tozasertib]
# Procedure, shortened: as §1
# bafetinib = compound: Cc1ccc(NC(=O)c2ccc(CN3CC[C@H](N(C)C)C3)c(C(F)(F)F)c2)cc1Nc1nccc(-c2cncnc2)n1 [bafetinib]
# Procedure, shortened: as §1
# [5] = compound: Cc1cccc(CC(=O)N2CCc3c2ccc(-c2cn(C)c4ncnc(N)c24)c3F)n1
# Procedure, shortened: as §1
# alisertib = compound: COc1cc(Nc2ncc3c(n2)-c2ccc(Cl)cc2C(c2c(F)cccc2OC)=NC3)ccc1C(=O)O [alisertib]
# Procedure, shortened: as §1
# gefitinib = compound: COc1cc2ncnc(Nc3ccc(F)c(Cl)c3)c2cc1OCCCN1CCOCC1 [gefitinib]
# Procedure, shortened: as §1
# crizotinib = compound: C[C@@H](Oc1cc(-c2cnn(C3CCNCC3)c2)cnc1N)c1c(Cl)ccc(F)c1Cl [crizotinib]
# Procedure, shortened: as §1
# doramapimod = compound: Cc1ccc(-n2nc(C(C)(C)C)cc2NC(=O)Nc2ccc(OCCN3CCOCC3)c3ccccc23)cc1 [doramapimod]
# Procedure, shortened: as §1
# [6] = compound: CNC(=O)C1=CC=CC=C1NC2=NC(=NC=C2Cl)NC3=C(C=C(C=C3)N4CCOCC4)OC
# Procedure, shortened: as §1
target,measurement,setting,value
PRMT2 (UniProt P55345),log2 fold change,alvocidib,inactive: -0.119
same,log2 fold change,Tubastatin A,inactive: 0.169
same,log2 fold change,defactinib,inactive: 0.006
same,log2 fold change,[1],inactive: 0.001
same,log2 fold change,encorafenib,inactive: -0.046
same,log2 fold change,[2],inactive: -0.04
same,log2 fold change,[3],inactive: 0.172
same,log2 fold change,lapatinib,inactive: -0.534
same,log2 fold change,pictilisib,inactive: 0.075
same,log2 fold change,[4],inactive: 0.025
same,log2 fold change,duvelisib,inactive: 0.144
same,log2 fold change,gandotinib,inactive: -0.087
same,log2 fold change,tozasertib,inactive: -0.004
same,log2 fold change,bafetinib,inactive: 0.079
same,log2 fold change,[5],inactive: 0.039
PPP2CA (UniProt E7ESG8),log2 fold change,alisertib,inactive: 0.139
same,log2 fold change,gefitinib,inactive: -0.034
PPL (UniProt O60437),log2 fold change,[1],inactive: -1.09
same,log2 fold change,encorafenib,inactive: 0.008
same,log2 fold change,[2],inactive: 0.002
same,log2 fold change,alisertib,inactive: -0.005
same,log2 fold change,gefitinib,inactive: 0.061
same,log2 fold change,pictilisib,inactive: 0.439
same,log2 fold change,crizotinib,inactive: -0.636
same,log2 fold change,duvelisib,inactive: -1.27
same,log2 fold change,tozasertib,inactive: -0.064
same,log2 fold change,doramapimod,inactive: 0.058
same,log2 fold change,bafetinib,inactive: 0.027
PPP1R3E (UniProt Q9H7J1),log2 fold change,alvocidib,inactive: -0.022
same,log2 fold change,[6],inactive: 0.056
same,log2 fold change,[4],inactive: -0.081
same,log2 fold change,gandotinib,inactive: 0.143
same,log2 fold change,[5],inactive: 0.24
PPP2R3B (UniProt Q9Y5P8),log2 fold change,alvocidib,inactive: 0.013
same,log2 fold change,[3],inactive: -0.123
same,log2 fold change,lapatinib,inactive: 0.115
same,log2 fold change,pictilisib,inactive: 0.123
same,log2 fold change,crizotinib,inactive: -0.048
same,log2 fold change,[4],inactive: 0.048
same,log2 fold change,gandotinib,inactive: -0.079
same,log2 fold change,doramapimod,inactive: 0.038
same,log2 fold change,bafetinib,inactive: -0.189
same,log2 fold change,[5],inactive: -0.068
PPP1R12C isoform 3 (UniProt Q9BZL4),log2 fold change,alvocidib,inactive: -0.027
same,log2 fold change,Tubastatin A,inactive: -0.023
same,log2 fold change,pictilisib,inactive: -0.017
same,log2 fold change,crizotinib,inactive: 0
same,log2 fold change,[4],inactive: 0.109
same,log2 fold change,gandotinib,inactive: -0.074
same,log2 fold change,doramapimod,inactive: 0.064
same,log2 fold change,bafetinib,inactive: -0.036
same,log2 fold change,[5],inactive: -0.112
PROSER3 (UniProt Q2NL68),log2 fold change,alvocidib,inactive: -0.012
same,log2 fold change,[6],inactive: 0.152
same,log2 fold change,defactinib,inactive: -0.047
same,log2 fold change,crizotinib,inactive: 0.131
same,log2 fold change,[4],inactive: -0.022
same,log2 fold change,gandotinib,inactive: 0.039
same,log2 fold change,doramapimod,inactive: -0.173
same,log2 fold change,[5],inactive: -0.139
PPP1R12B isoform 6 (UniProt O60237),log2 fold change,Tubastatin A,inactive: 0.081
same,log2 fold change,[6],inactive: 0.006
same,log2 fold change,defactinib,inactive: -0.046
same,log2 fold change,[1],inactive: 0.016
same,log2 fold change,encorafenib,inactive: -0.011
same,log2 fold change,[2],inactive: 0.145
same,log2 fold change,[3],inactive: 0.072
same,log2 fold change,lapatinib,inactive: -0.079
same,log2 fold change,pictilisib,inactive: 0.017
same,log2 fold change,crizotinib,inactive: -0.347
same,log2 fold change,duvelisib,inactive: 0.036
same,log2 fold change,tozasertib,inactive: -0.015
same,log2 fold change,doramapimod,inactive: 0.047
same,log2 fold change,bafetinib,inactive: 0.05
PREP (UniProt H0Y5Y0),log2 fold change,alvocidib,inactive: 0.082
same,log2 fold change,[3],inactive: 0.03
same,log2 fold change,lapatinib,inactive: -0.029
same,log2 fold change,[4],inactive: -0.304
same,log2 fold change,gandotinib,inactive: 0.113
same,log2 fold change,[5],inactive: -0.153
PPP1R15B (UniProt Q5SWA1),log2 fold change,alvocidib,inactive: 0.066
same,log2 fold change,[4],inactive: -0.165
same,log2 fold change,gandotinib,inactive: -0.268
same,log2 fold change,[5],inactive: 0.249
PRKX (UniProt P51817),log2 fold change,alvocidib,inactive: -0.077
same,log2 fold change,Tubastatin A,inactive: -0.067
same,log2 fold change,defactinib,inactive: 0.148
same,log2 fold change,[1],inactive: 0.46
same,log2 fold change,encorafenib,inactive: -0.065
same,log2 fold change,[2],inactive: -0.023
same,log2 fold change,alisertib,inactive: -0.064
same,log2 fold change,[3],inactive: 0.23
same,log2 fold change,gefitinib,inactive: -0.1
same,log2 fold change,lapatinib,inactive: -0.075
same,log2 fold change,pictilisib,inactive: -0.116
same,log2 fold change,[4],inactive: 0.315
same,log2 fold change,duvelisib,inactive: 0.038
same,log2 fold change,gandotinib,inactive: -0.116
same,log2 fold change,tozasertib,inactive: 0.015
same,log2 fold change,bafetinib,inactive: -0.038
same,log2 fold change,[5],inactive: 0.149
"PPP1R14A, A0A0B4J2A3",log2 fold change,[6],inactive: -0.549
same,log2 fold change,[3],inactive: 0.111
same,log2 fold change,lapatinib,inactive: -0.02
PPP6R3 isoform 6 (UniProt Q5H9R7),log2 fold change,alvocidib,inactive: -0.232
same,log2 fold change,Tubastatin A,inactive: 0.154
same,log2 fold change,[4],inactive: 0.046
same,log2 fold change,gandotinib,inactive: 0.267
same,log2 fold change,[5],inactive: 0.016
PPP1R7 (UniProt C9JD73),log2 fold change,[3],inactive: 0.006
same,log2 fold change,lapatinib,inactive: -0.106
PRG2 (UniProt P13727),log2 fold change,[1],inactive: -0.02
same,log2 fold change,encorafenib,inactive: 0.062
same,log2 fold change,[2],inactive: -0.124
same,log2 fold change,[3],inactive: -0.04
same,log2 fold change,lapatinib,inactive: 0.188
same,log2 fold change,crizotinib,inactive: -0.144
same,log2 fold change,duvelisib,inactive: 0.08
same,log2 fold change,tozasertib,inactive: -0.107
same,log2 fold change,doramapimod,inactive: -0.041
PRIMPOL (UniProt Q96LW4),log2 fold change,Tubastatin A,inactive: -0.159
same,log2 fold change,[6],inactive: 0.036
same,log2 fold change,defactinib,inactive: 0.076
same,log2 fold change,[1],inactive: 0.071
same,log2 fold change,encorafenib,inactive: 0.055
same,log2 fold change,[2],inactive: -0.37
same,log2 fold change,alisertib,inactive: -0.113
same,log2 fold change,gefitinib,inactive: 0.045
same,log2 fold change,pictilisib,inactive: 0.02
same,log2 fold change,crizotinib,inactive: -0.097
same,log2 fold change,duvelisib,inactive: 0.003
same,log2 fold change,tozasertib,inactive: -0.031
same,log2 fold change,doramapimod,inactive: 0.014
same,log2 fold change,bafetinib,inactive: -0.225
PRG4 (UniProt Q92954),log2 fold change,alvocidib,active: -0.826
same,log2 fold change,Tubastatin A,inactive: 0.103
same,log2 fold change,[1],inactive: 0.204
same,log2 fold change,alisertib,inactive: -0.045
same,log2 fold change,[3],inactive: 0.093
same,log2 fold change,gefitinib,inactive: -0.076
same,log2 fold change,lapatinib,inactive: -0.097
same,log2 fold change,pictilisib,inactive: -0.408
same,log2 fold change,crizotinib,inactive: -0.118
same,log2 fold change,[4],active: -1.36
same,log2 fold change,duvelisib,inactive: 0.042
same,log2 fold change,gandotinib,inactive: 0.051
same,log2 fold change,doramapimod,inactive: 0.201
same,log2 fold change,bafetinib,inactive: -0.238
same,log2 fold change,[5],inactive: 0.278

# As a short view, part of the list above:
target,measurement,setting,value
PPP2R3B (UniProt Q9Y5P8),log2 fold change,alvocidib,inactive: 0.013
same,log2 fold change,[3],inactive: -0.123
same,log2 fold change,lapatinib,inactive: 0.115

# Retrieved one by one from above, 2 records:
target,measurement,setting,value
PPP1R12C isoform 3 (UniProt Q9BZL4),log2 fold change,pictilisib,inactive: -0.017
PPP1R3E (UniProt Q9H7J1),log2 fold change,[4],inactive: -0.081
